Experimental data taken from the supplement of paper PMC10849652.
The list shows a part of the results.

Sequences of proteins named here, by UniProt entry; tags and fusion partners are left off. A change or cut given only in a name is not applied to a line headed by its entry.
UniProt P07602: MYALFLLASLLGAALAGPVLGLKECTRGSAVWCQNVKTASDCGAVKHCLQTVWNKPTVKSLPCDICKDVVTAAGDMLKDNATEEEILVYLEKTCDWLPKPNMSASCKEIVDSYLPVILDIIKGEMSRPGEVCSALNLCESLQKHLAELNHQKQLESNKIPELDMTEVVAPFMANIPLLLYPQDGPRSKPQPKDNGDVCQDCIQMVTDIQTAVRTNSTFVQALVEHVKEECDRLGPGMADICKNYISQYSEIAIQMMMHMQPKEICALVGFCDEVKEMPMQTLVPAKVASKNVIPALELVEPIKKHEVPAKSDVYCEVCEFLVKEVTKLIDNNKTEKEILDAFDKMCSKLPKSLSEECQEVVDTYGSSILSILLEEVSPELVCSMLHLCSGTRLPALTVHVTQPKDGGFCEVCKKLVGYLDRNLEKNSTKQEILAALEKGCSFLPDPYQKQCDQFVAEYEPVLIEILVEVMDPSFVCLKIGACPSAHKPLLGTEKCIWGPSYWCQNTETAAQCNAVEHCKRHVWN
UniProt Q9ULL5: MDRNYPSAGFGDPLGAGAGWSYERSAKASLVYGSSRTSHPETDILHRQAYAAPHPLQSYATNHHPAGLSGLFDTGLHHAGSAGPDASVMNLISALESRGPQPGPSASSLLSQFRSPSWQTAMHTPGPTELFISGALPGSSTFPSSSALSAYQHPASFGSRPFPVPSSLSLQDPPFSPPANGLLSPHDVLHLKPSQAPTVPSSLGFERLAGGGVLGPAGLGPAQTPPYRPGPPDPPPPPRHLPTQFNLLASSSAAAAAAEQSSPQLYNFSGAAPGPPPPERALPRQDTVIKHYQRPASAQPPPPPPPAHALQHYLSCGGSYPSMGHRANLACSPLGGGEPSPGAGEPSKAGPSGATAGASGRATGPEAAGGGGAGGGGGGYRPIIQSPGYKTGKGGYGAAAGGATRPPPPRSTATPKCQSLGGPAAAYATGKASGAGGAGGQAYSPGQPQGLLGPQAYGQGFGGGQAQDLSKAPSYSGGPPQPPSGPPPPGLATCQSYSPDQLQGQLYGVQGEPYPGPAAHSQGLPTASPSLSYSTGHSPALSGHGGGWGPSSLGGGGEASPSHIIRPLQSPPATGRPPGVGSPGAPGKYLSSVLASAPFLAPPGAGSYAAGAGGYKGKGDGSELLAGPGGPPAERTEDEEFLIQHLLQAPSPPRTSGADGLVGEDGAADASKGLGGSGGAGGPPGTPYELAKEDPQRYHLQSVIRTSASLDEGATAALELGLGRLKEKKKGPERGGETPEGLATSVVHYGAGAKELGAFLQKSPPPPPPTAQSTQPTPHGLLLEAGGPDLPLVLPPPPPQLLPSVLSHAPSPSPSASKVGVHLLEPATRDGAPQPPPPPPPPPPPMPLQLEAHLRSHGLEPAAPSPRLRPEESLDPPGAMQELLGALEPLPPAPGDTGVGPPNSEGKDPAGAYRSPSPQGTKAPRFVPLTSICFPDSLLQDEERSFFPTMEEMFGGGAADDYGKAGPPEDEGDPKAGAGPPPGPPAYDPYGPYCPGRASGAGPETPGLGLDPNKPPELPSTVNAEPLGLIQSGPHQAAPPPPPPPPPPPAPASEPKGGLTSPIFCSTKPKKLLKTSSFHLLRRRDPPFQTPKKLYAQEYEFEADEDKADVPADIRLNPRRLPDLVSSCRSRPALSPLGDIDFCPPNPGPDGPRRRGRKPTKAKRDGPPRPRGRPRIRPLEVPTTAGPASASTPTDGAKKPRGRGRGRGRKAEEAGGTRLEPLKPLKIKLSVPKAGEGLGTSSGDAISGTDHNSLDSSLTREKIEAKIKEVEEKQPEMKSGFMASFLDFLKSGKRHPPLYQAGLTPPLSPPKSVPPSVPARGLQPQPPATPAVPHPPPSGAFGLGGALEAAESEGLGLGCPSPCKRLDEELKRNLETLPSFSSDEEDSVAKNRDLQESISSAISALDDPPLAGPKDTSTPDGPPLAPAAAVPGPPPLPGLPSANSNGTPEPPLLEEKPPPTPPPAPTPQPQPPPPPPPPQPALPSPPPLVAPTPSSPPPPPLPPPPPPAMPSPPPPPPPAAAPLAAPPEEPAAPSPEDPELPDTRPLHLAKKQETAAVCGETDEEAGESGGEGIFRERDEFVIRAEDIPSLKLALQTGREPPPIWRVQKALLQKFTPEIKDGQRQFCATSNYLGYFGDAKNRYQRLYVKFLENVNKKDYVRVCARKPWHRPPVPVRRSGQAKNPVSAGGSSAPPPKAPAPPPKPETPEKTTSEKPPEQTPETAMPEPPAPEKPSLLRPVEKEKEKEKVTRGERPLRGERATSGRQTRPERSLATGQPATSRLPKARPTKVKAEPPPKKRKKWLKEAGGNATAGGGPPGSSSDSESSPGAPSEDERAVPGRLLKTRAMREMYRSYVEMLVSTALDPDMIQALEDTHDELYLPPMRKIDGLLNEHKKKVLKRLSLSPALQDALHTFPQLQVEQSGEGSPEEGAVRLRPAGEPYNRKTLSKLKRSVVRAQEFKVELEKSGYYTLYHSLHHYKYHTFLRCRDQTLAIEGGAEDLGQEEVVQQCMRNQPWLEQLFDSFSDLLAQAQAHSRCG
UniProt Q9BT73: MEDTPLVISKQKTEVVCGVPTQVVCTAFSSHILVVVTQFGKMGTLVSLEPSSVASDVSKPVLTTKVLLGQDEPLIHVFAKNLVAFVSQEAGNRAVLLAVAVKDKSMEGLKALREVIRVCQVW
UniProt Q9UI38: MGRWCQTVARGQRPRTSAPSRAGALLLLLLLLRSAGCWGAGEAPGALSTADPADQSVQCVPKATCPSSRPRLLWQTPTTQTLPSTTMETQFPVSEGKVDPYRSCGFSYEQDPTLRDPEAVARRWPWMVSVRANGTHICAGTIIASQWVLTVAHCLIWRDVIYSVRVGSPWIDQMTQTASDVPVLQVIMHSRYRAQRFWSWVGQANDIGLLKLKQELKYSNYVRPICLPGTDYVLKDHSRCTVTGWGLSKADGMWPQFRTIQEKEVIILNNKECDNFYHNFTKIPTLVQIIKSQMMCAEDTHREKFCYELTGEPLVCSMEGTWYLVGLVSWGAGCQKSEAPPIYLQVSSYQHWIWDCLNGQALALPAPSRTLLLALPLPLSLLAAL
UniProt Q15678: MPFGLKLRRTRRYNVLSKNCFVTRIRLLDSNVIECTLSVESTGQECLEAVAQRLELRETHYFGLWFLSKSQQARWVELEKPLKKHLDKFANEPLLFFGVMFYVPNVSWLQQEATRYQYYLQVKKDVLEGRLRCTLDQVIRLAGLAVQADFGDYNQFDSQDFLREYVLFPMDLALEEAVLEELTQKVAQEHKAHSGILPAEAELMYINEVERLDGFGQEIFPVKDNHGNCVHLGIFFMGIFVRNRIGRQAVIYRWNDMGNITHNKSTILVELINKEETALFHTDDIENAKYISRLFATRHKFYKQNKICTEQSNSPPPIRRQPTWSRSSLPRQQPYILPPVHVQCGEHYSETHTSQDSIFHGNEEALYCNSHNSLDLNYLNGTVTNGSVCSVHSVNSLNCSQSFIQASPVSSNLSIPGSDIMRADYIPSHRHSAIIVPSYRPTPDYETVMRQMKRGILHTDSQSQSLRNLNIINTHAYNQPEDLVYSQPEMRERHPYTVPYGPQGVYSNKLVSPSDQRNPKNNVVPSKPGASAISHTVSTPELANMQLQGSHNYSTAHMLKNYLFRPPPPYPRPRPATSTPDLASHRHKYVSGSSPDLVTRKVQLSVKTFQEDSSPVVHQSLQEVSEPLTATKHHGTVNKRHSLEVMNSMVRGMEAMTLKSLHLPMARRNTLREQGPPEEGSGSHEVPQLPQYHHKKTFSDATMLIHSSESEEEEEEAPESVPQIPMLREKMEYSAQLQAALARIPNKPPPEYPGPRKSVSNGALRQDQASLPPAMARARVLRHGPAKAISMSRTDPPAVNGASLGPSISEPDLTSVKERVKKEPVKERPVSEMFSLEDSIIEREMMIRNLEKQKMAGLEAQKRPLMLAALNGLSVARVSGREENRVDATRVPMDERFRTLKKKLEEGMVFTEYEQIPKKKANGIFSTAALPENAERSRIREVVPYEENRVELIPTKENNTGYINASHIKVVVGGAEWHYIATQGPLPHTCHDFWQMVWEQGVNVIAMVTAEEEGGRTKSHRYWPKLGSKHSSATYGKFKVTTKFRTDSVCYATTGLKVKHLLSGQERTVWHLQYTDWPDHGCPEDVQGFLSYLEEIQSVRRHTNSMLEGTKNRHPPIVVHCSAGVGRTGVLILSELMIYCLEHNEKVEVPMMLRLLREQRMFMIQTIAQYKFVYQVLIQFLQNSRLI
UniProt Q569H4: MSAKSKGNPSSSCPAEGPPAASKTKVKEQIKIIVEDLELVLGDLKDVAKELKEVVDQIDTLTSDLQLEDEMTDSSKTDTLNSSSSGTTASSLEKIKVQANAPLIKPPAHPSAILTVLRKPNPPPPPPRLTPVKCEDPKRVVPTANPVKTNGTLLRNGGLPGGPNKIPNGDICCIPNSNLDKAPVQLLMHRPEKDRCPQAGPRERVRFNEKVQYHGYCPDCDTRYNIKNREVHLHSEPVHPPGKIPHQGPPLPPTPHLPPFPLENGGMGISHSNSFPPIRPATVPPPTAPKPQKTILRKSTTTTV
UniProt Q9BRX8: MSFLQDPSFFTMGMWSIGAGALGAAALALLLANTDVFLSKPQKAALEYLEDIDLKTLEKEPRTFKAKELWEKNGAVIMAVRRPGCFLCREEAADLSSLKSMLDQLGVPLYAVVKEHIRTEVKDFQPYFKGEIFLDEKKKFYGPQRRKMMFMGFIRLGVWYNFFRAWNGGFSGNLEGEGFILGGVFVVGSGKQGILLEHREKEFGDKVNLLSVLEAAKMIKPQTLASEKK

Key:
Assay in all cases: log2 fold change, soluble protein after heating vs DMSO (PISA); higher = thermal stabilisation; K562 lysate, 10 uM; active = over 0.2 and 3.5 SD of the protein, either way, in both replicates (recomputed)
vorinostat = compound: O=C(CCCCCCC(=O)Nc1ccccc1)NO [vorinostat]
How it was run: (§1)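 Pellets of K562 cells were dounce-homogenised in PBS pH 7.4 with 1 mM MgCl2, and the crude extract was held at 1 mg/mL protein for a 30 min treatment with 10 μM compound. Aliquots were heated for 3 min over 48°C-58°C and pooled before NP-40 was added to 0.5% at 4°C. The supernatant from 21,000xg for 90 min was quantified by TMTpro 16plex LC-MS/MS with channel sums equalised. Values are reported from duplicates as log-two fold change in thermal stability relative to solvent controls.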

silmitasertib = compound: O=C(O)c1ccc2c(c1)nc(Nc1cccc(Cl)c1)c1ccncc12 [silmitasertib]
How it was run: as §1

[1] = compound: O=C1NC(=O)C(c2cnc3ccccn23)=C1c1cn2c3c(cc(F)cc13)CN(C(=O)N1CCCCC1)CC2
How it was run: as §1

[2] = compound: NCC(=O)Nc1ccc(-n2nc(C(F)(F)F)cc2-c2ccc3c(ccc4ccccc43)c2)cc1
How it was run: as §1

entospletinib = compound: c1cn2cc(-c3ccc4cn[nH]c4c3)nc(Nc3ccc(N4CCOCC4)cc3)c2n1 [entospletinib]
How it was run: as §1

Which results are given for PSAP isoform 2 (UniProt P07602)?
log2 fold change (vorinostat): inactive: 0.406; log2 fold change (silmitasertib): inactive: 0.124

For PRR12 (UniProt Q9ULL5), which log2 fold change [1] is on record?
Its log2 fold change is inactive: -0.008.

With PSMG3 (UniProt Q9BT73) as the target, how does the log2 fold change [2] read?
The log2 fold change was inactive: -0.022.

What about the log2 fold change (vorinostat) of the same target?
Its log2 fold change is inactive: 0.06.

And the log2 fold change (silmitasertib)?
Its log2 fold change is inactive: 0.007.

And the log2 fold change [1]?
The log2 fold change was inactive: -0.007.

What about the log2 fold change (entospletinib) of the same target?
The log2 fold change was inactive: 0.039.

With PRSS50 (UniProt Q9UI38) as the target, how does the log2 fold change (entospletinib) read?
The log2 fold change was inactive: -0.001.

With PTPN14 (UniProt Q15678) as the target, how does the log2 fold change [1] read?
Its log2 fold change is inactive: 0.1.

And the log2 fold change (entospletinib)?
The log2 fold change was inactive: 0.089.

What does the source list for PSMF1 (UniProt Q5QPM7)?
log2 fold change [2]: inactive: 0.009; log2 fold change [1]: inactive: -0.023; log2 fold change (entospletinib): inactive: -0.118

How did the log2 fold change [1] turn out when PRR16 (UniProt Q569H4) was run?
Its log2 fold change is inactive: 0.107.

Which results are given for PRXL2A (UniProt Q9BRX8)?
log2 fold change (vorinostat): inactive: 0.163; log2 fold change (silmitasertib): inactive: -0.169
